Test: Quenching efficiency of isoniazid and amino acid: fluorescence of DBDY
Format: physicochemical
Details: for Relative fluorescence quantum yield of DBDY, Φf,rel(DBDY, i): PBS buffer solution pH 7.4, 25° C., λex = 320 nm, λem = 410 nm
[1] = same concentrations, λex=320 nm, λem=410 nm
[2] = 0.25 M-DBDY and 10 mM amino acid or INH

| Compound | Relative fluorescence quantum yield of DBDY, Φf,rel(DBDY, i) [2] | further results |
| --- | --- | --- |
| CC(C)(C)OC(=O)NC(Cc1ccc(O)c(-c2cc(CC(NC(=O)OC(C)(C)C)C(=O)O)ccc2O)c1)C(=O)O (stereo not drawn) [DBDY, N,N′-diBoc-dityrosine, reference compound] |  | fluorescence intensity of DBDY relative to that of tryptophan [1]: about 4,300 times; fluorescence intensity of DBDY relative to that of tyrosine [1]: about 11,000 times |
| NCC(=O)O [Glycine] | 0.96 |  |
| CC[C@H](C)[C@H](N)C(=O)O [Isoleucine] | 0.96 |  |
| NNC(=O)c1ccncc1 [Isoniazid, isoniazid, reference compound] | 0.25 |  |
| CC(C)C[C@H](N)C(=O)O [Leucine] | 0.96 |  |
| NCCCC[C@H](N)C(=O)O [Lysine] | 1.03 |  |
| CSCC[C@H](N)C(=O)O [Methionine] | 0.90 |  |
| N[C@@H](Cc1ccccc1)C(=O)O [Phenylalanine] | 0.93 |  |
| N[C@@H](Cc1c[nH]c2ccccc12)C(=O)O [Tryptophan] | 2.74 |  |
| N[C@@H](Cc1ccc(O)cc1)C(=O)O [Tyrosine] |  | Relative fluorescence quantum yield of DBDY, Φf,rel(DBDY, i) (0.25 M-DBDY, tyrosine at 5 mM due to low solubility): 1.43 |
| CC(C)[C@H](N)C(=O)O [Valine] | 0.99 |  |

— patent US20150293106A1, “DIAROMATIC AMINO ACID SUBSTRATE FOR CATHEPSIN DETECTION” (INDUSTRY-ACADEMIC COOPERATION FOUNDATION, YONSEI UNIVERSITY, priority 2012, published 2015)
